Article PMC7868338, “Identification of Functional Interactome of Colistin Resistance Protein MCR-1 in Escherichia coli” (Frontiers in Microbiology, 2020)
These are yes or no findings as the source states them, for the method shown. In cells and extracts the contact can be indirect. A yes stands for co-enrichment or nearness to the bait. Other partners may have been found.

By UniProt entry, the sequences of proteins in these tests, tags left out.
UniProt P0AFZ3: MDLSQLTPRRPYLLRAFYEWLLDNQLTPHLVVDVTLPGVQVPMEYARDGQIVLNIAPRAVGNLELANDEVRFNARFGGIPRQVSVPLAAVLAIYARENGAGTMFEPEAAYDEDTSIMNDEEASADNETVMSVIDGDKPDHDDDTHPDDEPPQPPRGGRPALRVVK
UniProt P0A6Y8: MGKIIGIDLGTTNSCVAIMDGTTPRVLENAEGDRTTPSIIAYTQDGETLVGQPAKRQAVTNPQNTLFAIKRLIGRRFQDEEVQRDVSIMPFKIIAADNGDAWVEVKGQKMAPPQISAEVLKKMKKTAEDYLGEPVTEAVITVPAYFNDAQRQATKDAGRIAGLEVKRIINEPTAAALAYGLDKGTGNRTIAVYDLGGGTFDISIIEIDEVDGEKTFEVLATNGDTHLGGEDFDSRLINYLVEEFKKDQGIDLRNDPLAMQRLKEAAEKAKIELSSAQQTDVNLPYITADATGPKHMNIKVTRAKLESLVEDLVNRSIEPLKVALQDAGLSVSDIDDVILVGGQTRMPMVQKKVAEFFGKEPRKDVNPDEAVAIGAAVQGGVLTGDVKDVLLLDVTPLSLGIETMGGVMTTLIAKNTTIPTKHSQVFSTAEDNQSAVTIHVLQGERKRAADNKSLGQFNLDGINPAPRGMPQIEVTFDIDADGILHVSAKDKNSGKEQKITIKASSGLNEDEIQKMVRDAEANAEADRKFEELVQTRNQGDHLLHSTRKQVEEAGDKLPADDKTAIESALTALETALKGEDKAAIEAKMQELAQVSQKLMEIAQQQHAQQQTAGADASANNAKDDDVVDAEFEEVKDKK
UniProt P0A6F5: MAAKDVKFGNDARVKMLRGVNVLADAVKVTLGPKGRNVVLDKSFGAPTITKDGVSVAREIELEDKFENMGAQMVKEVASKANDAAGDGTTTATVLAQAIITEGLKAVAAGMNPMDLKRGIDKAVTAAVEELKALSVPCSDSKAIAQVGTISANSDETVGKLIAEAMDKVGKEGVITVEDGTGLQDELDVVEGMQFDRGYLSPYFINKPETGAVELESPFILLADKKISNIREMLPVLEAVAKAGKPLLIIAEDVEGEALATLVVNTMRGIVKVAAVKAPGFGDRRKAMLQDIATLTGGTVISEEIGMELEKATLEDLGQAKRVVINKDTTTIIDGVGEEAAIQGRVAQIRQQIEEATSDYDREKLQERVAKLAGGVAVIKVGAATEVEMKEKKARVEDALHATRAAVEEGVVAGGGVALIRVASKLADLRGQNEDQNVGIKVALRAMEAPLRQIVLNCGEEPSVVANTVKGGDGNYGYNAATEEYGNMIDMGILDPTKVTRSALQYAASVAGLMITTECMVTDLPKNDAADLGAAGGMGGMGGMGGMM
UniProt P0A6N2: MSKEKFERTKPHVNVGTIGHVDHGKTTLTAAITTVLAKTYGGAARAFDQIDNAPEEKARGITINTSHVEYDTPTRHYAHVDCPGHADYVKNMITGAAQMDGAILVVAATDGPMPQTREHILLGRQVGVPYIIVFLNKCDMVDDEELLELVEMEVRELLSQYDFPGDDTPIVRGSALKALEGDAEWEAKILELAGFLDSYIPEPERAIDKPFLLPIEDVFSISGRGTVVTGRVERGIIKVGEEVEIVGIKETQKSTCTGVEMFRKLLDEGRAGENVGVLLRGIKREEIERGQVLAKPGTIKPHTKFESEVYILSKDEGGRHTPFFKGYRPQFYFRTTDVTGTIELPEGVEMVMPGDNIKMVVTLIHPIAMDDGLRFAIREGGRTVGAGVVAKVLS
UniProt P0ACF0: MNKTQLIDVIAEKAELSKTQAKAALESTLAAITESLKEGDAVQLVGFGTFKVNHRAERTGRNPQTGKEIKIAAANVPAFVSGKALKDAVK

T1: MCR-1 (from pUC19-mcr-1) (E. coli)
T1 sequence: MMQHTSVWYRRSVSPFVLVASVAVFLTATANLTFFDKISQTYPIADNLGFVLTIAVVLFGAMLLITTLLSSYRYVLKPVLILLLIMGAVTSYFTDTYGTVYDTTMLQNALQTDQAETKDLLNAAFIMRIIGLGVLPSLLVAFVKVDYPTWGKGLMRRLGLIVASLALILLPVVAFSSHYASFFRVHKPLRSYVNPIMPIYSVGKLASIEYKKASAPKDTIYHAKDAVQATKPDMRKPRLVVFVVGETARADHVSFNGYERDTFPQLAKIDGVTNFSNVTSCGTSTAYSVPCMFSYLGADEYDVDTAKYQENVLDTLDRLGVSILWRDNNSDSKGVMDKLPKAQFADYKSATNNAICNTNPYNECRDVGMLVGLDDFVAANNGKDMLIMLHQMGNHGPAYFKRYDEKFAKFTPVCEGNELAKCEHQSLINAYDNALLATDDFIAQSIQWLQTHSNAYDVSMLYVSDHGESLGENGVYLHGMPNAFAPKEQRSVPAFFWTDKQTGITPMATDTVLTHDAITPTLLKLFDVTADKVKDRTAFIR

T2: MCR-1 full-length protein (E. coli (strain SHP45))
T2 sequence: T1 sequence

T3: MCR-1-200 catalytic domain protein (E. coli (strain SHP45))
T3 sequence: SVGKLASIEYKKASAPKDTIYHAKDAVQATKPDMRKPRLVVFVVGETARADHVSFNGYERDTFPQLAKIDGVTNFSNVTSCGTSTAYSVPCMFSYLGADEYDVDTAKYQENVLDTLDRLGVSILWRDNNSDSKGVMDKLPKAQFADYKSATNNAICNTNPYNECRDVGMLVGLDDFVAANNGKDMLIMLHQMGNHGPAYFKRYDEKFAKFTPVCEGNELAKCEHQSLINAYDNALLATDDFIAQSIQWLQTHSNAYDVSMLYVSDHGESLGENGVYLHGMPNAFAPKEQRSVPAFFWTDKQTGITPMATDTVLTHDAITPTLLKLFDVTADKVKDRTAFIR

B1: DNA-binding protein HU-beta (protein, UniProt P0ACF4 1-90)
chain: MNKSQLIDKIAAGADISKAAAGRALDAIIASVTESLKEGDDVALVGFGTFAVKERAARTGRNPQTGKEITIAAAKVPSFRAGKALKDAVN
B2: Isocitrate dehydrogenase (NADP) (enzyme, UniProt P08200 1-416)
chain: MESKVVVPAQGKKITLQNGKLNVPENPIIPYIEGDGIGVDVTPAMLKVVDAAVEKAYKGERKISWMEIYTGEKSTQVYGQDVWLPAETLDLIREYRVAIKGPLTTPVGGGIRSLNVALRQELDLYICLRPVRYYQGTPSPVKHPELTDMVIFRENSEDIYAGIEWKADSADAEKVIKFLREEMGVKKIRFPEHCGIGIKPCSEEGTKRLVRAAIEYAIANDRDSVTLVHKGNIMKFTEGAFKDWGYQLAREEFGGELIDGGPWLKVKNPNTGKEIVIKDVIADAFLQQILLRPAEYDVIACMNLNGDYISDALAAQVGGIGIAPGANIGDECALFEATHGTAPKYAGQDKVNPGSIILSAEMMLRHMGWTEAADLIVKGMEGAINAKTVTYDFERLMDGAKLLKCSEFGDAIIENM
B3: Succinate dehydrogenase iron-sulfur subunit (enzyme, UniProt P07014 1-238)
chain: MRLEFSIYRYNPDVDDAPRMQDYTLEADEGRDMMLLDALIQLKEKDPSLSFRRSCREGVCGSDGLNMNGKNGLACITPISALNQPGKKIVIRPLPGLPVIRDLVVDMGQFYAQYEKIKPYLLNNGQNPPAREHLQMPEQREKLDGLYECILCACCSTSCPSFWWNPDKFIGPAGLLAAYRFLIDSRDTETDSRLDGLSDAFSVFRCHSIMNCVSVCPKGLNPTRAIGHIKSMLLQRNA
B4: DNA-binding protein H-NS (protein, UniProt P0ACF8 1-137)
chain: MSEALKILNNIRTLRAQARECTLETLEEMLEKLEVVVNERREEESAAAAEVEERTRKLQQYREMLIADGIDPNELLNSLAAVKSGTKAKRAQRPAKYSYVDENGETKTWTGQGRTPAVIKKAMDEQGKSLDDFLIKQ
B5: Major outer membrane lipoprotein Lpp (protein, UniProt P69776 21-78)
chain: CSSNAKIDQLSSDVQTLNAKVDQLSNDVNAMRSDVQAAKDDAARANQRLDNMATKYRK
B6: HTH-type transcriptional regulator GntR (protein, UniProt P0ACP5 1-331)
chain: MKKKRPVLQDVADRVGVTKMTVSRFLRNPEQVSVALRGKIAAALDELGYIPNRAPDILSNATSRAIGVLLPSLTNQVFAEVLRGIESVTDAHGYQTMLAHYGYKPEMEQERLESMLSWNIDGLILTERTHTPRTLKMIEVAGIPVVELMDSKSPCLDIAVGFDNFEAARQMTTAIIARGHRHIAYLGARLDERTIIKQKGYEQAMLDAGLVPYSVMVEQSSSYSSGIELIRQARREYPQLDGVFCTNDDLAVGAAFECQRLGLKVPDDMAIAGFHGHDIGQVMEPRLASVLTPRERMGSIGAERLLARIRGESVTPKMLDLGFTLSPGGSI
B7: Galactitol-specific phosphotransferase enzyme IIB component (enzyme, UniProt P37188 1-94)
chain: MKRKIIVACGGAVATSTMAAEEIKELCQNHNIPVELIQCRVNEIETYMDGVHLICTTAKVDRSFGDIPLVHGMPFISGIGIEALQNKILTILQG
B8: HofN (protein, UniProt P64634 1-179)
chain: MNPPINFLPWRQQRRTAFLRFWLLMFVAPLLLAVGITLILRLTGSAEARIDAVLLQAEQQLARSLQITKPRLLEQQQLREQRSQRQRQRQFTRDWQSALEALAALLPEHAWLTTISWQQGTLEIKGLTTSITALNALETSLRQDASFHLNQRGATQQDAQGRWQFEYQLTRKVSDEHVL
B9: Peptidoglycan-associated lipoprotein (protein, UniProt P0A912 22-173)
chain: CSSNKNASNDGSEGMLGAGTGMDANGGNGNMSSEEQARLQMQQLQQNNIVYFDLDKYDIRSDFAQMLDAHANFLRSNPSYKVTVEGHADERGTPEYNISLGERRANAVKMYLQGKGVSADQISIVSYGKEKPAVLGHDEAAYSKNRRAVLVY

Key:
Assay in all cases: affinity purification with mass spectrometry; Co-IP with anti-MCR-1 mAb 3G4 and G-Sepharose from E. coli lysates (50 mM Tris-HCl pH 7.5, 300 mM NaCl, 1 mM PMSF, 1% DDM), 4°C; co-precipitates eluted with 0.2 M glycine pH 2.3 and identified by nano LC-MS/MS; anti-IgG and empty vector pull-downs as negative controls
[1] = molecular target: T1, MCR-1 (from pUC19-mcr-1) (E. coli)
[2] = molecular target: T2, MCR-1 full-length protein (E. coli (strain SHP45))
[3] = molecular target: T3, MCR-1-200 catalytic domain protein (E. coli (strain SHP45))

Row | Molecule | binding [1] | binding [2] | binding [3]
1 | Stringent starvation protein B (from UniProt P0AFZ3 1-165) | binds | binds | binds
2 | Chaperone protein DnaK (from UniProt P0A6Y8 1-638) | binds | binds | binds
3 | 50S ribosomal protein L11 (from UniProt P0A7J7 1-142) | binds | binds | –
4 | GroL (from UniProt P0A6F5 1-548) | binds | – | –
5 | Elongation factor Tu (from UniProt P0A6N2 1-394) | binds | binds | –
6 | DNA-binding protein HU-alpha (from UniProt P0ACF0 1-90) | – | binds | binds
7 | B1 | – | binds | binds
8 | B2 | – | binds | –
9 | B3 | – | binds | –
10 | B4 | binds | binds | binds
11 | B5 | – | binds | –
12 | B6 | binds | binds | –
13 | B7 | – | binds | –
14 | B8 | – | – | binds
15 | B9 | – | binds | –
